From PMC12203913
Results are given in words; binding and its absence hold for the method and conditions named.

Chains of the proteins cited; added tags and fusions are not shown. Lines headed by an entry give the natural chain unless they say otherwise; changes in a name come on top.
UniProt Q01831: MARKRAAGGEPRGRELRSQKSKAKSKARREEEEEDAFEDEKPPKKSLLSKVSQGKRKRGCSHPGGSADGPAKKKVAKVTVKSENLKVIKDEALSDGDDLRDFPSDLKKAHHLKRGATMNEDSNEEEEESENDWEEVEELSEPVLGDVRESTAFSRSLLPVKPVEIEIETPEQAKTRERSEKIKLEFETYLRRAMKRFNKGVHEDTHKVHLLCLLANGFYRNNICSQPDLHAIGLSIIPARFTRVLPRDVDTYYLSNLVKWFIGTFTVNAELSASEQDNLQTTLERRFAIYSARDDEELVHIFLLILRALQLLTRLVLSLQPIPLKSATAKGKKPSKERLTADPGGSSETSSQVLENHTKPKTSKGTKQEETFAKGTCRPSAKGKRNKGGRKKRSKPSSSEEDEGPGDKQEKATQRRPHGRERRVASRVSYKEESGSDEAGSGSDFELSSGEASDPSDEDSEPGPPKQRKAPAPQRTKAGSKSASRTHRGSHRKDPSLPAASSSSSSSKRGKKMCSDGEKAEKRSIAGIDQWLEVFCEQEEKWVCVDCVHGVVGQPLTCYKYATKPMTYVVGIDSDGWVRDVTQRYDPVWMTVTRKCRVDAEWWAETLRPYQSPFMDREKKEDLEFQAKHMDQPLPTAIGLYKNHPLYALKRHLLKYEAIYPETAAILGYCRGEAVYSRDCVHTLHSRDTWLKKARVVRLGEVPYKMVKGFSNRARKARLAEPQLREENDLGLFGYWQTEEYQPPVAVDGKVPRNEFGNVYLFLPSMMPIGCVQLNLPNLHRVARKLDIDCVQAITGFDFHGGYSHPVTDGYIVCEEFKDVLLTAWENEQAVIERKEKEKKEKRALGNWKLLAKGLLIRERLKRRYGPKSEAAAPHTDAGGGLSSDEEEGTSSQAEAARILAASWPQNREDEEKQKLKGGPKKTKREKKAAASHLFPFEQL
UniProt P54727: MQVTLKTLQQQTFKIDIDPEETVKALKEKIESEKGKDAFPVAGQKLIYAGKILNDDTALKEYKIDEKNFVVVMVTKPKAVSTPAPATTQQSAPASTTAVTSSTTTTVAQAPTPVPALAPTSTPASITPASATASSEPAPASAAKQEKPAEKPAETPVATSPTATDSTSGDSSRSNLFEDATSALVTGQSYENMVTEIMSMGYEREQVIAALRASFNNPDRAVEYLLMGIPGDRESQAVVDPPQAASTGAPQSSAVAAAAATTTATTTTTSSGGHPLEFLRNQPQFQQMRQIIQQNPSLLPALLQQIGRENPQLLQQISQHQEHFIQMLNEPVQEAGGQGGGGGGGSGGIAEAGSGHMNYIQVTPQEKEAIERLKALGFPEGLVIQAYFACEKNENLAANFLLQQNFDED
UniProt Q16531: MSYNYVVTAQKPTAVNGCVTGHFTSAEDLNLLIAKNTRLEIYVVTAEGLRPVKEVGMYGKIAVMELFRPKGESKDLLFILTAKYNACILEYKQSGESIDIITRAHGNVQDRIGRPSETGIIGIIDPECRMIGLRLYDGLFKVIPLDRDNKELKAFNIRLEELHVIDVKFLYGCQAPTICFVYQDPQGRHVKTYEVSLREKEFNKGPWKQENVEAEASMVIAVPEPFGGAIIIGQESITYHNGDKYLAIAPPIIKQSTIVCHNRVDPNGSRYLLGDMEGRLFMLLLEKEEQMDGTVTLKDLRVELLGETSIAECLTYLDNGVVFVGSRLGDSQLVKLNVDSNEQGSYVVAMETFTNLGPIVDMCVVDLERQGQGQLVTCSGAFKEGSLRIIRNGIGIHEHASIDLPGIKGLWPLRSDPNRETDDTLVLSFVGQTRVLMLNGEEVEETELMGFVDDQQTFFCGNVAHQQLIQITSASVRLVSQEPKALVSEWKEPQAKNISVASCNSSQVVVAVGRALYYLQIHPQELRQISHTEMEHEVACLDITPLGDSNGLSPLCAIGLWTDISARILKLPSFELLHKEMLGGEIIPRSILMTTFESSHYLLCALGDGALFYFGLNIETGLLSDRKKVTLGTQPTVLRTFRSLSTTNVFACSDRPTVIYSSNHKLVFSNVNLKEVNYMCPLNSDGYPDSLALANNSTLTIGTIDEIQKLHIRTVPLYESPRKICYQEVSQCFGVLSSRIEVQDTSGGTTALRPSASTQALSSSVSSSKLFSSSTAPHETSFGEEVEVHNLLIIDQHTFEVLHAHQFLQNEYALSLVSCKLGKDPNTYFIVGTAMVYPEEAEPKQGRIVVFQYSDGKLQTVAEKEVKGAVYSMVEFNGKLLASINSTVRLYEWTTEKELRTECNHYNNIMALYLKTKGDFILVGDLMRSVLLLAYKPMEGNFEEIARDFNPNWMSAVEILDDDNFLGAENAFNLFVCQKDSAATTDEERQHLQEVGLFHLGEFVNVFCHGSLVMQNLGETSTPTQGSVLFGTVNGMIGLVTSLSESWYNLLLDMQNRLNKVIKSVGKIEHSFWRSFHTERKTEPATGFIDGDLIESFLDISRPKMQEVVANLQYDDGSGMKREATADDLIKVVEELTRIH

Target: XPC-RAD23B (human) (UniProt Q01831+P54727)
Test: condition: only XPC-RAD23B pre-bound to λ-DNA and free XPC-RAD23B washed out; 0.2 nM UV-DDB; single-molecule DNA curtain; single-tethered λ-DNA curtains covered with XPC-RAD23B (8 nM incubated, ~70% coverage, unbound washed out, labelled with Alexa488-conjugated FLAG antibody); then 0.2 nM Qdot-labelled (anti-HA) UV-DDB injected; both purified

- binding: no binding
Substance: UV-DDB (heterodimer of DDB1 and DDB2) (from UniProt Q16531 1-1140; Q92466 1-427) (complex)
